Test results published in the supplement of paper PMC7752906.
Structures can show the parent of a compound that is named as a salt. This is one part of the list. This data set is noisy: repeats of one test often differ as much as different tests do.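 Test system: Schistosoma mansoni schistosomula, roughly 40 per well, imaged in bright field over time and compared with wells given 0.1% DMSO. Distance read-out: the paper calls a drug a hit when its Mahalanobis distance is at least 2.47, three standard deviations above the DMSO control mean. Degeneracy is the share of worms classified opaque.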

test system: Schistosoma mansoni schistosomula; assay: Mahalanobis distance of static-rate-frequency phenotype descriptors from DMSO controls (dimensionless); higher = stronger phenotypic change versus DMSO; conditions: 10 µM; 72 h

| SMILES | Mahalanobis distance |
| --- | --- |
| C=COCC(F)(F)F [Fluroxene] | inactive: 1.31 |
| CC(C)CCC[C@@H](C)[C@H]1CC[C@H]2[C@@H]3CC=C4C[C@@H](O)CC[C@]4(C)[C@H]3CC[C@]12C [Cholesterol] | inactive: 1.92 |
| Cc1c(O)cccc1C(=O)N[C@@H](CSc1ccccc1)[C@H](O)CN1C[C@H]2CCCC[C@H]2C[C@H]1C(=O)NC(C)(C)C [Nelfinavir] | inactive: 1.97 |
| COc1ccc2nc3cc(Cl)ccc3c(Nc3cc(CN4CCCC4)c(O)c(CN4CCCC4)c3)c2n1 [Pyronaridine Tetraphosphate] | active: 3.13 |
| Cc1ccc(O)c([C@H](CCN(C(C)C)C(C)C)c2ccccc2)c1 [Tolterodine] | active: 2.55 |
| NC[C@H]1CC[C@H](C(=O)O)CC1 [Tranexamic Acid] | inactive: 1.82 |
| Oc1c(Cl)cc(Cl)cc1Sc1cc(Cl)cc(Cl)c1O [Bithionol] | inactive: 2.32 |
| CCCCOc1ccc(CC(=O)NO)cc1 [Bufexamac] | inactive: 1.69 |
| O=S(=O)(O)CCSSCCS(=O)(=O)O [Dimesna] | inactive: 2.15 |
| Cc1cc(CC(C)CC(C)(C)C)n(O)c(=O)c1 (centres undefined) [Piroctone Olamine] | inactive: 2.21 |
| Clc1ccccc1C(c1ccccc1)(c1ccccc1)n1ccnc1 [Clotrimazole] | inactive: 2.25 |
| CO/N=C1\CN(c2nc3c(cc2F)c(=O)c(C(=O)O)cn3C2CC2)CC1CN (centres undefined) [Gemifloxacin Mesylate] | inactive: 1.75 |
| CC(=O)[C@H]1CC[C@H]2[C@@H]3CC=C4C[C@@H](OC(=O)CCC(=O)O)CC[C@]4(C)[C@H]3CC[C@]12C [Pregnenolone Succinate] | active: 2.72 |
| CCN(CCCc1ccccc1)CCCc1ccccc1 [Alverine Citrate] | inactive: 1.8 |
| CC[C@]1(O)C[C@@H]2CN(CCc3c([nH]c4ccccc34)[C@@](C(=O)OC)(c3cc4c(cc3OC)N(C)[C@H]3[C@@](O)(C(=O)OC)[C@H](OC(C)=O)[C@]5(CC)C=CCN6CC[C@]43[C@@H]65)C2)C1 [Vinblastine Sulfate] | active: 2.92 |
| O=C(O)c1cc(O)c(O)c(O)c1 [Gallic Acid] | inactive: 1.7 |
| CCN(CC)C(=O)N1CCN(C)CC1 [Diethylcarbamazine] | inactive: 1.26 |
| COc1ccc(-n2nc(CCC(=O)N(C)O)cc2-c2ccc(Cl)cc2)cc1 [Tepoxalin] | active: 2.58 |
| O=P(O)(O)C(O)(Cc1cccnc1)P(=O)(O)O [Risedronate Sodium] | inactive: 1.25 |
| CC(C)(Oc1ccc(C2CC2(Cl)Cl)cc1)C(=O)O (centres undefined) [Ciprofibrate] | active: 2.66 |
| CC1=C(C(=O)O)N2C(=O)[C@@H](NC(=O)[C@H](N)c3ccc(O)cc3)[C@H]2SC1 [Cefadroxil] | inactive: 1.51 |
| NC(=O)C1(N2CCCCC2)CCN(CCCC(=O)c2ccc(F)cc2)CC1 [Pipamperone] | inactive: 1.61 |
| NC(=O)c1cccnc1 [Niacinamide] | inactive: 2.45 |
| Nc1nccs1 [Aminothiazole] | inactive: 2.16 |
| Cn1c(=O)c2c(ncn2CC(O)CO)n(C)c1=O (centres undefined) [Dyphylline] | inactive: 1.88 |

Another view of some results above:
SMILES	Mahalanobis distance
COc1ccc2nc3cc(Cl)ccc3c(Nc3cc(CN4CCCC4)c(O)c(CN4CCCC4)c3)c2n1 [Pyronaridine Tetraphosphate]	active: 3.13
Cc1ccc(O)c([C@H](CCN(C(C)C)C(C)C)c2ccccc2)c1 [Tolterodine]	active: 2.55
NC[C@H]1CC[C@H](C(=O)O)CC1 [Tranexamic Acid]	inactive: 1.82
Oc1c(Cl)cc(Cl)cc1Sc1cc(Cl)cc(Cl)c1O [Bithionol]	inactive: 2.32
CCCCOc1ccc(CC(=O)NO)cc1 [Bufexamac]	inactive: 1.69
O=S(=O)(O)CCSSCCS(=O)(=O)O [Dimesna]	inactive: 2.15
Cc1cc(CC(C)CC(C)(C)C)n(O)c(=O)c1 (centres undefined) [Piroctone Olamine]	inactive: 2.21
Clc1ccccc1C(c1ccccc1)(c1ccccc1)n1ccnc1 [Clotrimazole]	inactive: 2.25
CO/N=C1\CN(c2nc3c(cc2F)c(=O)c(C(=O)O)cn3C2CC2)CC1CN (centres undefined) [Gemifloxacin Mesylate]	inactive: 1.75
CC(=O)[C@H]1CC[C@H]2[C@@H]3CC=C4C[C@@H](OC(=O)CCC(=O)O)CC[C@]4(C)[C@H]3CC[C@]12C [Pregnenolone Succinate]	active: 2.72
CCN(CCCc1ccccc1)CCCc1ccccc1 [Alverine Citrate]	inactive: 1.8
CC[C@]1(O)C[C@@H]2CN(CCc3c([nH]c4ccccc34)[C@@](C(=O)OC)(c3cc4c(cc3OC)N(C)[C@H]3[C@@](O)(C(=O)OC)[C@H](OC(C)=O)[C@]5(CC)C=CCN6CC[C@]43[C@@H]65)C2)C1 [Vinblastine Sulfate]	active: 2.92
O=C(O)c1cc(O)c(O)c(O)c1 [Gallic Acid]	inactive: 1.7
CCN(CC)C(=O)N1CCN(C)CC1 [Diethylcarbamazine]	inactive: 1.26
COc1ccc(-n2nc(CCC(=O)N(C)O)cc2-c2ccc(Cl)cc2)cc1 [Tepoxalin]	active: 2.58
O=P(O)(O)C(O)(Cc1cccnc1)P(=O)(O)O [Risedronate Sodium]	inactive: 1.25

More entries:

| SMILES | Mahalanobis distance |
| --- | --- |
| CCCc1nc(C(C)(C)O)c(C(=O)OCc2oc(=O)oc2C)n1Cc1ccc(-c2ccccc2-c2nnn[nH]2)cc1 [Olmesartan Medoxomil] | active: 2.53 |
| O=C(O)CCc1nc2ccccc2[nH]1 [Procodazole] | inactive: 1.95 |
| CC[C@]12CCCN3CCc4c(n(c5ccccc45)[C@@](O)(C(=O)OC)C1)[C@@H]32 [Vincamine] | inactive: 1.54 |
| CCC(C)(C)c1ccc(CC(C)CN2C[C@@H](C)O[C@@H](C)C2)cc1 (some centres undefined) [Amorolfine] | active: 2.52 |
| CC(CCc1ccc(O)cc1)NCCc1ccc(O)c(O)c1 (centres undefined) [Dobutamine] | inactive: 1.56 |
| CCN1CCC[C@H]1CNC(=O)c1cc(S(N)(=O)=O)ccc1OC [Levosulpiride] | inactive: 1.62 |
| Nc1ccc(S(N)(=O)=O)cc1 [Sulfanilamide] | inactive: 2.21 |
| O=C(O)[C@@H](S)[C@@H](S)C(=O)O [Succimer] | inactive: 1.8 |
| CC(C)c1nc(CN(C)C(=O)N[C@H](C(=O)N[C@@H](Cc2ccccc2)C[C@H](O)[C@H](Cc2ccccc2)NC(=O)OCc2cncs2)C(C)C)cs1 [Ritonavir] | active: 2.55 |
| CC(C)[C@H]1CC[C@H](C(=O)N[C@H](Cc2ccccc2)C(=O)O)CC1 [Nateglinide] | inactive: 1.29 |
| CC(=O)Oc1cccc(C(=O)O)c1OC(C)=O [Dipyrocetyl] | inactive: 2.28 |
| CC1CCc2cc(F)cc3c(=O)c(C(=O)O)cn1c23 (centres undefined) [Flumequine] | inactive: 2.35 |
| Nc1nc(N)nc(-c2cc(Cl)ccc2Cl)n1 [Irsogladine Maleate] | inactive: 1.88 |
| CCN1CCCC1CNC(=O)c1cc(S(=O)(=O)CC)c(N)cc1OC (centres undefined) [Amisulpride] | inactive: 1.94 |
| S=P(N1CC1)(N1CC1)N1CC1 [Thiotepa] | inactive: 1.59 |
| O=C(c1ccc(OCCN2CCCCC2)cc1)c1c(-c2ccc(O)cc2)sc2cc(O)ccc12 [Raloxifene] | inactive: 1.71 |
| CCOC(=O)C1=C(C)NC(C)=C(C(=O)OC)C1c1cccc([N+](=O)[O-])c1 (centres undefined) [Nitrendipine] | inactive: 1.78 |
| CCn1cc(C(=O)O)c(=O)c2cc(F)c(N3CCNCC3)cc21 [Norfloxacin] | inactive: 1.79 |
| CN(C)CCC(c1ccc(Cl)cc1)c1ccccn1 (centres undefined) [Chlorpheniramine] | inactive: 2.41 |
| COc1cc(N)c(Cl)cc1C(=O)NC1CCN(CCCOc2ccc(F)cc2)CC1OC (centres undefined) [Cisapride] | active: 2.85 |
| CCC(=O)NCC[C@@H]1CCc2ccc3c(c21)CCO3 [Ramelteon] | inactive: 1.2 |
| Cn1c(=O)c2c(ncn2C)n(C)c1=O [Caffeine] | inactive: 1.87 |
| Cc1c(OCC(F)(F)F)ccnc1C[S+]([O-])c1nc2ccccc2[nH]1 (centres undefined) [Lansoprazole] | active: 2.5 |
| COc1ccc2cc1Oc1ccc(cc1)C[C@H]1c3c(cc4c(c3Oc3cc5c(cc3OC)CCN(C)[C@@H]5C2)OCO4)CCN1C [cepharanthine] | inactive: 2.28 |
| O=C(O[C@@H]1C[C@@H]2C[C@H]3C[C@H](C1)N2CC3=O)c1c[nH]c2ccccc12 [Dolasetron] | inactive: 2.31 |

| SMILES | Mahalanobis distance |
| --- | --- |
| CC(C)(C)NC(=O)[C@@H]1CN(Cc2cccnc2)CCN1C[C@@H](O)C[C@@H](Cc1ccccc1)C(=O)N[C@H]1c2ccccc2C[C@H]1O [Indinavir] | inactive: 1.68 |
| CN(C)CC[C@@H](c1ccc(Cl)cc1)c1ccccn1 [Dexchlorpheniramine] | inactive: 1.51 |
| COC(=O)C(N)CS (centres undefined) [Mecysteine Hydrochloride] | inactive: 1.95 |
| CC(N)C12CC3CC(CC(C3)C1)C2 (centres undefined) [Rimantadine Hydrochloride] | inactive: 2.41 |
| CC(N)C12CC3CC(CC(C3)C1)C2 (centres undefined) [Rimantadine] | active: 2.51 |
| CN(C)CCOC(=O)COc1ccc(Cl)cc1 [Meclofenoxate] | inactive: 1.74 |
| Brc1c(NC2=NCCN2)ccc2nccnc12 | active: 2.79 |
| OC(CCN1CCCCC1)(c1ccccc1)C1CCCCC1 (centres undefined) [Trihexyphenidyl] | active: 2.61 |
| Cc1ccc2c(Cl)cc(Cl)c(O)c2n1 [Chlorquinaldol] | inactive: 1.57 |
| N=C(N)N/N=C/c1c(Cl)cccc1Cl [Guanabenz] | inactive: 2.31 |
| CCCc1nc(C(C)(C)O)c(C(=O)O)n1Cc1ccc(-c2ccccc2-c2nnn[nH]2)cc1 [Olmesartan] | active: 4.54 |
| O=C(OCc1ccccc1)c1ccccc1 [Benzyl Benzoate] | active: 3.34 |
| CC(Oc1ccccc1)C(=O)N[C@@H]1C(=O)N2[C@@H]1SC(C)(C)[C@@H]2C(=O)O (some centres undefined) [Phenethicillin Potassium] | inactive: 2.12 |
| COc1ccc(-c2cc(C(F)F)nn2-c2ccc(S(N)(=O)=O)cc2)cc1F [Deracoxib] | active: 2.7 |
| CN(C)[C@@H]1C(O)=C(C(N)=O)C(=O)[C@@]2(O)C(O)=C3C(=O)c4c(O)ccc(Cl)c4[C@@H](O)[C@H]3C[C@@H]12 [Demeclocycline Hydrochloride] | inactive: 1.63 |
| NC(N)=O | active: 2.66 |
| CCOc1ccccc1OCCNC(C)Cc1ccc(OC)c(S(N)(=O)=O)c1 (centres undefined) [Amsulosin] | inactive: 2.16 |
| CC1=C(CC(=O)O)c2cc(F)ccc2/C1=C\c1ccc([S+](C)[O-])cc1 (centres undefined) [Sulindac] | inactive: 1.44 |
| CCCCC(=O)O[C@]1(C(=O)CO)CC[C@H]2[C@@H]3CCC4=CC(=O)CC[C@]4(C)[C@H]3[C@@H](O)C[C@@]21C [Hydrocortisone Valerate] | inactive: 1.7 |
| CCc1cccc2c3c([nH]c12)C(CC)(CC(=O)O)OCC3 (centres undefined) [Etodolac] | inactive: 1.4 |
| Cc1noc(NS(=O)(=O)c2ccc(N)cc2)c1C [Sulfisoxazole] | inactive: 1.98 |
| C[C@]12CC[C@@H]3c4ccc(O)cc4CC[C@H]3[C@@H]1C[C@@H](O)[C@@H]2O [Estriol] | inactive: 1.22 |
| Cn1nnnc1SCC1=C(C(=O)O)N2C(=O)[C@@H](NC(=O)[C@H](OC=O)c3ccccc3)[C@H]2SC1 [Cefamandole Nafate] | inactive: 2.16 |
| CCCCC(CC)CN=C(N)N=C(N)NCCCCCCNC(N)=NC(N)=NCC(CC)CCCC (centres undefined) [Alexidine Hydrochloride] | inactive: 2.11 |
